Experimental data: PubChem BioAssay AID2417 (National Center for Advancing Translational Sciences (NCATS), 2010)
About 4,300 (3.1%) of roughly 140,000 compounds were called active. The inconclusive results got no clear call from the source; some entries with a clear call stand among them for comparison.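 How the source made its calls: active means readout at or below -70, meaning at least 70% loss of cells showing the perinucleolar compartment, a nuclear body marking cancer cells; inconclusive means readout between -30 and a set limit; inactive means the rest.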

assay: High Content Assay for Compounds that inhibit the Assembly of the Perinucleolar Compartment; conditions: PC3M PTB-GFP, PNC prevalence imaging, 16 h; at 10 µM; active compounds read low;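 further: plate controls were DMSO wells for no effect and camptothecin positive control wells for full effect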
Method in brief: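 Compounds are pinned in duplicate onto adhered PC3M cells stably expressing GFP-tagged PTB and incubated 16 h at 37 C. Cells are then fixed, nuclei stained with Hoechst, and PNC-positive cells counted.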

SMILES	activity change (PNC), negative = inhibition
CCCn1nnc(NC(=O)c2ccccc2Cl)n1	inactive: 50.7%
O=C(CSc1nc(-c2ccccc2)cc(C(F)(F)F)n1)c1cccc([N+](=O)[O-])c1	inconclusive: -53.7%
COC(=O)c1ccccc1C(=O)N1CCOCCN(C(=O)c2ccccc2C(=O)OC)CCOCC1	inconclusive: -36.6%
Oc1c(C=C2N=c3ccccc3=N2)sc(=S)n1C1CCCC1	inactive: 14.2%
Cc1nc2cc(C(=O)NCc3ccc4c(c3)OCO4)ccc2n1-c1ccc(Br)cc1	inconclusive: -62.6%
COc1ccc2nc3oc(C(=O)NCc4cccs4)cc3cc2c1	inconclusive: -32.3%
Cc1ccc(NC(=O)/C=C/c2ccc3c(c2)OCO3)cc1S(=O)(=O)N1CCOCC1	inactive: -24%
Cc1ccc(-c2nc(N)sc2CC(=O)OCC(=O)N2C(C)CCCC2C)cc1 (stereo not drawn)	inconclusive: -49%
O=C(CNC(=O)c1ccccc1)OC(C(=O)c1ccccc1)c1ccccc1 (stereo not drawn)	inconclusive: -60.2%
CCOC(=O)C1CCCN(C(=O)c2cc(-c3ccc(C)cc3)on2)C1 (stereo not drawn)	inactive: 4.83%
COCCNc1oc(-c2ccc(C)cc2)nc1C#N	inconclusive: -42.3%
CCOc1ccc(Cc2nc(N)nc(N)n2)cc1	active: -100%
Cc1cc([N+](=O)[O-])cc2c1NCC1CC=CC21 (stereo not drawn)	inconclusive: -47.4%
Cn1c(C(C(=O)NCC2CCCO2)N(C(=O)Cn2nnc3ccccc32)C2CCCCC2)nc2ccccc21 (stereo not drawn)	inconclusive: -72.3%
CC1(C)Cc2c(c(N3CCOCC3)nc3snc(Br)c23)CO1	active: -84%
O=C(NNS(=O)(=O)c1ccc([N+](=O)[O-])cc1)c1cnn(-c2ccccc2)c1-n1cccc1	active: -100%
O=C1CCN(S(=O)(=O)c2ccc(Cl)cc2)N1	inactive: 81.5%
CCCN1C2CCCC1CC(NC(=O)Nc1cccc(C(C)=O)c1)C2 (stereo not drawn)	inconclusive: -45.1%
CN(C)c1nc(-c2ccccc2)cc(C(F)(F)F)c1C#N	inconclusive: -36.7%
COC(=O)Nc1ccc(S(=O)(=O)N2CCC(C)CC2)cc1	inconclusive: -51.6%

Entries above that have a CF3 group (2):
SMILES	activity change (PNC), negative = inhibition
O=C(CSc1nc(-c2ccccc2)cc(C(F)(F)F)n1)c1cccc([N+](=O)[O-])c1	inconclusive: -53.7%
CN(C)c1nc(-c2ccccc2)cc(C(F)(F)F)c1C#N	inconclusive: -36.7%

(listing goes on)

SMILES	activity change (PNC), negative = inhibition
Cc1ccc(NC(=O)c2ccnc(C(C)(C)C)c2)cc1	inactive: -3.99%
CCCCOc1ccc(/C=N/NC(=S)Nc2cccc(C)c2C)cc1	inconclusive: -45.5%
COC(=O)C(CC(C)C)NC(=O)c1cc(OC)c(OC)c(OC)c1 (stereo not drawn)	inconclusive: -30.1%
COc1cccc(N(C(=O)C2COc3ccccc3O2)C(C(=O)NC2CCCCC2)c2ccc(O)cc2)c1 (stereo not drawn)	inconclusive: -40.7%
O=C(O)CCNc1cc2ccccc2cc1C(=O)O	inactive: 0.61%
CCOC(=O)c1[nH]c(C)c(C(=O)Nc2ccc(F)cc2)c1C	inconclusive: -39.5%
O=C(C/C=N/OCc1ccc(Cl)cc1Cl)c1ccccc1	inconclusive: -40.1%
O=C(Nc1sc2c(c1C(=O)NC1CC1)CCCCCC2)c1ccco1	inconclusive: -63%
Cc1cc(C(=O)OCC(=O)c2ccc(Br)s2)no1	inactive: -19.1%
Cc1cc(C)c(-c2csc(NC(=O)C3=NN(c4ccccc4)C(=O)CC3)n2)c(C)c1	inconclusive: -30.1%
Cc1ccc(S(=O)(=O)N2CCC(=O)N(CCOCc3cccc(C)c3)CC2)cc1	inactive: 66.9%
O=C(COc1ccccc1)NNC(=S)NC(=O)c1ccc(Cl)cc1Cl	inactive: -24.3%
CCN1CCc2nc(SCC(=O)Nc3ccc(OC)cc3)c(C#N)cc2C1	inconclusive: -44.1%
Cc1cccc(N(Cc2cc3ccccc3[nH]c2=O)C(=O)c2ccco2)c1C	inconclusive: -59.6%
O=S(=O)(NC1CCCC1)c1ccc(S(=O)(=O)NC2CCCC2)cc1	inconclusive: -49.3%
CCCNS(=O)(=O)c1ccc(OC)c(Cl)c1Cl	inconclusive: -62.7%
Cc1ccc(-n2ncc3c2ncn2c(-c4ccncc4)nnc32)cc1	active: -91.2%
CC(/C=N\NC(=O)CN1CCN(Cc2ccccc2)CC1)=C\c1ccco1	inactive: 9.31%
Cc1cc(C(=O)CSCCCn2c(=O)[nH]c3ccccc32)c(C)n1C	inactive: -11%
O=C(CSc1ncccn1)NN=C1CCCCCCC1	inactive: 11.5%

SMILES	activity change (PNC), negative = inhibition
CCCOc1ccc(CNC(=O)Cn2c(=O)oc3ccccc32)cc1	inconclusive: -33.2%
Cc1cc(NC(=O)c2cccc(S(=O)(=O)N3CCCC3)c2)no1	inconclusive: -30.8%
CSC1=NSC2=NC(=O)/C(=C/c3coc4ccccc4c3=O)C(=N)N12	inactive: 6.39%
O=C(CS(=O)(=O)c1cn(Cc2ccc(Cl)cc2)c2ccccc12)N1CCCCC1	inconclusive: -41.9%
Cn1c(=O)oc2cc(S(=O)(=O)NC(Cc3ccccc3)C(=O)N3CCCCC3)ccc21 (stereo not drawn)	inconclusive: -48.2%
O=C(NCCCNC(=O)c1ccco1)c1ccco1	inconclusive: -51.6%
Cc1ccc(S(=O)(=O)C(C#N)c2nc3ccccc3nc2N2CC(C)OC(C)C2)cc1C (stereo not drawn)	active: -139%
O=C(NCc1ccco1)c1cc2n(n1)C(C(F)(F)F)CC(c1ccc(F)cc1)N2 (stereo not drawn)	inconclusive: -36%
Cc1nn(-c2ccccc2)c(C)c1NC(=O)CCl	inconclusive: -36.9%
CN1C(=O)/C(=C/c2cc(N=Nc3ccccc3)ccc2O)SC1=S	inactive: -23.8%
CCC1SC2=NCN(c3ccccc3)CN2C1=O (stereo not drawn)	inactive: 27.5%
CC1(C)CC(=O)C2=C(C1)OC(N)=C(C#N)C2C1C=CCCC1 (stereo not drawn)	inconclusive: -32.6%
COc1ccc(C(=O)Nc2nccs2)cc1OC	inactive: 19.8%
CCn1c(CNC(=O)COc2ccc(C(C)C)cc2)nnc1SCC(=O)Nc1ccc(F)cc1	inactive: 12.4%
C/C(=N/NC(=O)CNC(=O)c1ccccn1)c1ccccc1	inconclusive: -44.5%
CN(C)CCN1CCc2ccccc21	inactive: -15.2%
COc1ccc(OC)c(NC(=O)COC(=O)CCCN2C(=O)c3ccccc3C2=O)c1	inactive: -6.98%
O=C(CNC(=O)c1ccccc1F)N/N=C/c1cc(Br)ccc1OCc1ccccc1	inconclusive: -30.3%
